Laboratory results as given in patent US11111238B2, “Coumarin derivatives, processes for their preparation and uses thereof for the treatment of cancer” (Lead Discovery Center GmbH, priority 2017, dated 2021).
The match of structure and compound is tentative.

Chains of the proteins cited; added tags and fusions are not shown. Residues count along the entry.
UniProt Q8BKF1, 42-1207 limits assumed: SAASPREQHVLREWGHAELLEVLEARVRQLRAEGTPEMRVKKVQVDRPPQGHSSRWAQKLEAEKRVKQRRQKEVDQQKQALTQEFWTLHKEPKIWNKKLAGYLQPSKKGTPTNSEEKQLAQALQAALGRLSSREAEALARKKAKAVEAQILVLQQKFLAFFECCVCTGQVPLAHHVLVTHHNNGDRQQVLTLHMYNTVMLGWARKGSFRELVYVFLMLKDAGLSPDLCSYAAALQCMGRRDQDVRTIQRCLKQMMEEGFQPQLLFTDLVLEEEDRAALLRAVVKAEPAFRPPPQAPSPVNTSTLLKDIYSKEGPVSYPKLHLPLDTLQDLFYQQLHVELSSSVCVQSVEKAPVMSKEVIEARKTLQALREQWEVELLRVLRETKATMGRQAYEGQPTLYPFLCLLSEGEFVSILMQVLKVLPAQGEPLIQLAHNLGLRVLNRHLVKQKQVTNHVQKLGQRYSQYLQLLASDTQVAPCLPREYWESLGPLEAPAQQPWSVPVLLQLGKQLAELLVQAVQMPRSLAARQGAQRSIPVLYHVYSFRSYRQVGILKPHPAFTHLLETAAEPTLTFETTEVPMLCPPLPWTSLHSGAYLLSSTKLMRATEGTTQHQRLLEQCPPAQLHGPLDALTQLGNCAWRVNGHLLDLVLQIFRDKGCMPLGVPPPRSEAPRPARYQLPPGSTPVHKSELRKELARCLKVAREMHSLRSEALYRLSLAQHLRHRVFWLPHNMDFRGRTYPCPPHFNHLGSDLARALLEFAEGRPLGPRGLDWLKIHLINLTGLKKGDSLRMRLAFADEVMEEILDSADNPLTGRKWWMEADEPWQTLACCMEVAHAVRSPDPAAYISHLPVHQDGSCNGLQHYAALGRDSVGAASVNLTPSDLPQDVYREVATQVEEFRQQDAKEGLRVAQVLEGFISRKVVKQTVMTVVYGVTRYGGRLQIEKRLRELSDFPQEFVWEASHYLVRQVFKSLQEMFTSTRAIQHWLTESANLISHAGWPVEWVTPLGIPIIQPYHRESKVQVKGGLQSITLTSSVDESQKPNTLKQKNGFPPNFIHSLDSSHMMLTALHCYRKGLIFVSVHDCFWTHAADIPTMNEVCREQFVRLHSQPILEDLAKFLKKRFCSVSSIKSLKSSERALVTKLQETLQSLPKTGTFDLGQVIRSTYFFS

Molecular target: mitochondrial RNA-polymerase (POLRMT) (Mus musculus, UniProt Q8BKF1)
Assay: Homogeneous TR-FRET assay for mitochondrial transcription activity
Details: homogeneous TR-FRET assay according to Example 4; activity class
Source text: The TR-FRET assay was basically conducted as described in WO2016/193,231A1, especially as described in example 1 (hereby incorporated by reference). With respect to the background of the mitochondrial transcription it is referred to Falkenberg et al. (2002) and Posse et al. (Posse et al., 2015). The method monitors the activity of mitochondrial RNA-polymerase via detection of the formation of its product, a 407 bp long RNA sequence. Detection of the product is facilitated by hybridization of two DNA-oligonucleotide probes to specific and adjacent sequences within the RNA product sequence. Upon annealing of the probes, two fluorophores that are coupled directly to an acceptor nucleotide probe (ATT0647, 5′) or introduced via a coupled streptavidin interacting with a biotinylated donor nucleotide probe on the other side (Europium cryptate, 3′) are brought into sufficient proximity to serve as a fluorescence-donor-acceptor pair as generally described in Walters and Namchuk (2003). Thus, a FRET signal at 665 nm is generated upon excitation at 340 nm.
Briefly, the protocol described here was applied for screening and activity determination in a low-volume 384-well microtiter plate with non-binding surface. For high-throughput application in the 1536-well microtiter plate format, volumes of the reagent mixes were adjusted, maintaining the volumetric ratio. […]

Cc1sccc1-c1cc(=O)oc2cc(O[C@H](C)C(=O)N3CCCCC3)ccc12
mitochondrial transcription activity: + +

Cc1sccc1-c1cc(=O)oc2cc(O[C@H](C)C(=O)N3CCCC(C(=O)O)C3)ccc12 (mixture of isomers)
mitochondrial transcription activity: + +
